For test [1], the target named is NadA3 24–89 (Neisseria meningitidis serogroup B strain 2996) (UniProt Q8KH85). Kind of test: SEC-MALS; SE-HPLC on TSK Super SW3000 coupled to MALLS, room temperature (18 to 26°C), 10 mM NaH2PO4, 400 mM (NH4)2SO4 pH 6.0, 40 μg of NadA loaded; trimer to monomers; both purified.
Test [2] has as its target NadA3 24–103 (Neisseria meningitidis serogroup B strain 2996) (UniProt Q8KH85). The test is described as above.

The text below walks through data of article PMC6191539.

These are yes or no findings as the source states them, for the method shown.

As for “NadA3 24–89 (from UniProt Q8KH85 24-89) (domain or fragment)”, the binding entry in test [1] is “no binding”.

In the case of “NadA3 24–103 (from UniProt Q8KH85 24-103) (domain or fragment)”, the binding result in test [2] is given as “no binding”.
